Measured values published in publication PMC11718236.

Legend:
Assay in all cases: fluorescence anisotropy
[1] = biological target: Rho (transcription termination factor ρ, wt) (Escherichia coli) (UniProt P0AG30); details: 20 mM HEPES pH 7.5, 150 mM KCl, 5% glycerol, 5 mM MgCl2, 0.5 mM TCEP, SBS assays with 10 uM unlabeled dC15 and 2 mM ADP-BeF3, probe 5 uM dC15-FAM or 2 uM rU12-FAM, recombinant protein, residues 1-419
[2] = biological target: Rho P167L (Escherichia coli) (UniProt P0AG30); details: 20 mM HEPES pH 7.5, 150 mM KCl, 5% glycerol, 5 mM MgCl2, 0.5 mM TCEP, SBS assays with 10 uM unlabeled dC15 and 2 mM ADP-BeF3, probe 5 uM dC15-FAM or 2 uM rU12-FAM, recombinant protein, residues 1-419
[3] = tested on: Rho P167L + Psu (polarity suppression protein); details: SBS, IC50 of Psu added before RNA, dC15-blocked PBS, 2 mM ADP-BeF3; 20 mM HEPES pH 7.5, 150 mM KCl, 5% glycerol, 5 mM MgCl2, 0.5 mM TCEP; SBS assays with 10 uM unlabeled dC15 and 2 mM ADP-BeF3; probe 5 uM dC15-FAM or 2 uM rU12-FAM; recombinant protein
[4] = SBS binding, PBS blocked with 10 uM unlabeled dC15, 2 mM ADP-BeF3, panel assignment from figure text order

Sequence	Kd ([1]; PBS binding, 5 mM Mg2+, panel assignment from figure text order (other PBS value 0.7), single-stranded DNA)	Kd ([2]; PBS binding, 5 mM Mg2+, panel assignment from figure text order (other PBS value 1.1), single-stranded DNA)	Kd [1, 4]	Kd [2, 4]	IC50 [3]
CCCCCCCCCCCCCCC [dC15-FAM]	1100 nM	700 nM	–	–	–
UUUUUUUUUUUU [rU12-FAM]	–	–	1200 nM	1500 nM	2800 nM

The exact form of at least one protein or probe is not confirmed.
